According to patent publication US11851642B2, “Test device” (HITACHI HIGH-TECH CORPORATION, priority 2015, dated 2023):
For at least one compound, name, drawing or mass did not settle the structure.

System: Enterococcus faecalis (ATCC29212)
Experiment: antimicrobial susceptibility testing by microscopic observation, areas of the bacteria
Type: cell-based
Method: In addition, when an examination is performed by using the bacteriological testing instrument 1, culture is performed by mixing a bacterial suspension prepared from a specimen with a culture fluid in the culture plate (for example, a culture plate which has 96 wells in total is used) 18. In order to perform the antimicrobial susceptibility testing, antimicrobial agents different from each other are set so as to be respectively contained in the culture fluids in each of the wells in particular concentrations. An order of the culturing is as follows. First, the bacterial suspension is introduced into the culture plate 18. Then, the bacterial suspension is in a state of being mixed with the culture fluid which is included in each of the wells, and the temperature controller 16 is set to a temperature of approximately 35° C. Furthermore, culture is performed by performing incubation such that the temperature of each of the wells in the culture plate 18 reaches the set temperature. Then, in the bacteriological testing instrument 1, while performing the incubation, the bacteria included in each of the wells can be monitored through the microscopic observation optical system. The microscopic observation may be performed for a set period of time from the start of the incubation till the end thereof by continuously monitoring the state of bacterial proliferation. In addition, the monitoring may be performed at the set time after setting appropriate time, and the monitoring result can be compared with the monitoring result when the incubation is started. In addition, similar to the bacteriological testing instrument in the related art, the turbidity of each of the wells may be measured through the turbidity measurement optical system while incubating the culture plate 18. The measured result may be compared with the monitored result of the microscopic observation optical system.
The processor determines whether the bacteria proliferate or the proliferation is interrupted under the corresponding culture condition, based on the microscopic image to which the above-described necessary treatments are performed. The determination whether or not the proliferation is performed, is performed by comparing with the information obtained based on the images at different times in the same container. More specifically, based on the image after the treatment illustrated in FIGS. 4 to 6, for example, the areas of the bacteria are calculated, and it is determined whether or not the proliferation is performed by creating the graph as illustrated in FIG. 12.
The processor combines the information on whether or not the proliferation is performed under the culture condition with a combination of a certain concentration of the antimicrobial agent, and determines the minimum concentration of the antimicrobial agent (MIC, minimum inhibitory concentration) which becomes interruption of proliferation. Here, the MIC determination is performed with respect to all of the wells provided on the culture plate 21. For example, there are 96 wells on the culture plate 21, and various types of antimicrobial agents having different concentrations (for example, 0 μg/mL, 0.5 μg/mL, 1 μg/mL, 2.0 μg/mL, 4.0 μg/mL, 8.0 μg/mL, 16.0 μg/mL, . . . ) enter the wells. Therefore, the minimum concentration (MIC) of the antimicrobial agent which becomes interruption of proliferation can be ascertained.
FIGS. 8 to 11 are views illustrating the microscopic observation images (raw image data before the image treatment) of Enterococcus faecalis (ATCC29212). The obtained image data is stored and held in the control PC, and is used in the bacterial identification or the determination of the MIC. For example, FIG. 8 illustrates images obtained by imaging a state of the Enterococcus faecalis in the Mueller-Hinton culture medium not containing levofloxacin respectively after (a) zero minutes, (b) 90 minutes, (c) 150 minutes, and (d) 210 minutes from the start of culture. […]

C[C@H]1COc2c(N3CCN(C)CC3)c(F)cc3c(=O)c(C(=O)O)cn1c23 [levofloxacin]
time-dependent change of the areas of the bacteria (levofloxacin 0.5 μg/mL (FIG. 12)): increase as time elapses | state of the bacteria in microscopic observation images (levofloxacin 0.5 μg/mL, 0 to 210 minutes from the start of culture (FIG. 9)): proliferated and was divided in a chain state | state of the bacteria in microscopic observation images (levofloxacin 1.0 μg/mL, after 150 minutes (FIG. 10)): hardly grown thereafter | time-dependent change of the areas of the bacteria (levofloxacin 1.0 μg/mL, after 150 minutes (FIG. 12)): remain to be constant thereafter | state of the bacteria in microscopic observation images (levofloxacin 2.0 μg/mL, after 150 minutes (FIG. 11)): hardly grown thereafter | time-dependent change of the areas of the bacteria (levofloxacin 2.0 μg/mL, after 150 minutes (FIG. 12)): remain to be constant thereafter
